Experiments:
[1] = tested on: bloodstream trypomastigotes of T. cruzi (Y strain); test: Activity against bloodstream trypomastigotes, light microscopy counting; type: cell-based, Trypanosoma cruzi; details: IC50 H9C2 / EC50 bloodstream trypomastigotes Y strain, 24 h
Procedure: (§1) Bloodstream trypomastigotes of the Y strain (DTU II) were obtained by cardiac puncture of infected Swiss Webster mice on the parasitemia peak to perform drug sensitivity assays. Trypomastigote forms of the Tulahuen-β gal strain were collected from the supernatant of previously infected L929 cell cultures (host/parasite cell ratio 10:1). The intracellular forms T. cruzi were studied by the infection of L929 and H9C2 (2D and 3D) cell cultures infected for 48 and 24 h with trypomastigotes of Tulahuen-β gal and Y strains, respectively. The Leishmania mexicana-Cas9 T7 strain (LmexCas9) was derived from L. mexicana WT promastigotes by expression of the Streptococcus pyogenes Cas9 nuclease gene ‘Cas9′ and maintained on 32 μg/mL hygromycin [51]. This strain and the derived strains Cas9^ΔNT1 and Cas9^ΔNT1+TcrNT2 were cultured in HOMEM medium supplemented with 10% of FBS and 1% Penicillin-Streptomycin antibiotic in unvented flasks at 25 °C [52]. The Cas9^ΔNT1 strain is identical to Cas9 except that the LmexNT1.1/NT1.2 locus encoding the L. mexicana adenosine/ pyrimidine transporters was excised using Cas9 [17, 40]. Cas9^ΔNT1+TcrNT2 is the further modification of that strain by the expression of the T. cruzi nucleoside transporter 2 (TcrNT2) gene in it, using the vector pNUS-HcN [53]. Appropriate antibiotics were added for the selection and maintenance of transfectants.
To analyze the compound activity against bloodstream trypomastigotes of T. cruzi (Y strain), […] of parasite were added in 96-well microtiter plates and incubated for 2 or for 24 h at 37 °C in RPMI culture medium in the presence or absence of each compound (up to 30 µM). The death rates were quantified by light microscopy using a Neubauer chamber to determine the EC50 [49, 58]. The data results from two independent experiments performed in duplicate were obtained.

[2] = tested on: intracellular forms of T. cruzi (Tulahuen strain); test: Activity against intracellular forms of T. cruzi (Tulahuen-β gal strain) in L929 cultures, CPRG readout; type: cell-based, Trypanosoma cruzi; details: seven days
Source text: L929 cell lines were used to evaluate the effect of the nucleoside derivatives on the cellular viability of mammalian host cells and to assess their activity against intracellular forms of T. cruzi (Tulahuen strain expressing E. coli β-galactosidase gene, DTU VI) as reported. 2D and 3D culture systems of rat cardiomyoblast cell lines (H9C2(2-1)) were used to evaluate cardiotoxicity and to test the derivatives’ activity on intracellular forms (Y strain, DTU II). In all assays, the cell cultures were maintained at 37 °C under an atmosphere of 5% CO2.
as §1
In an initial step, nucleoside derivatives were assayed against intracellular forms of Tulahuen-β gal strain in L929 cell lines. Assays were performed in sterile 96-well microtiter plates with 4 × 10^3 cells/well and 4 × 10^4 parasites/well (host/parasite cell ratio 1:10). […] Parasite burden was analyzed by adding the substrate CPRG (chlorophenol red ß-D-galactopyranoside) followed by measurements (spectrophotometrically) at 570 nm. The results were expressed as percentage of reduction in parasite growth compared to untreated cells, and EC50 values were calculated. […] After seven days of treatment, the cultures were fixed, stained with Giemsa, and 200 cells were quantified by light microscopy. The results were expressed as % of reduction in parasite burden. […]

Row | SMILES | SI (IC50/EC50) [1] | SI (IC50/EC50) [2]
1 | O=C(Cn1ccnc1[N+](=O)[O-])NCc1ccccc1 [Bz, Benznidazole, reference compound] | >43.48 | >101.5
2 | Nc1ncnc2c1c(-c1ccc(Cl)c(Cl)c1)cn2[C@@H]1O[C@H](CO)C[C@H]1O [FH8513, 7-(3,4-dichlorophenyl)-3′-deoxytubercidin] | 45.34 | 111.3
3 | Nc1ncnc2c1c(-c1ccc(Cl)c(F)c1)cn2[C@@H]1O[C@H](CO)[C@@H](O)[C@H]1O [FH10714, 7-(3-fluoro,4-chlorophenyl)tubercidin] | >22.39 | 118.6
4 | Nc1ncnc2c1c(-c1ccc(F)c(F)c1)cn2[C@@H]1O[C@H](CO)[C@@H](O)[C@H]1O [FH11706, 7-(3,4-Difluorophenyl)tubercidin] | >17.06 | 106.7
